Laboratory results from PMC4797270.
No constants are given. Whether binding was seen depends on the method and setting. For some assays here: Binding seen in cells or lysates may run through a third protein. Some binding calls cover weakened binding; strength is not graded here. For some assays here: Tags and fused reporters may be left off the sequences shown.

Protein sequences, listed by entry. Tags and fused reporters are not part of them.
UniProt Q9V6Q2: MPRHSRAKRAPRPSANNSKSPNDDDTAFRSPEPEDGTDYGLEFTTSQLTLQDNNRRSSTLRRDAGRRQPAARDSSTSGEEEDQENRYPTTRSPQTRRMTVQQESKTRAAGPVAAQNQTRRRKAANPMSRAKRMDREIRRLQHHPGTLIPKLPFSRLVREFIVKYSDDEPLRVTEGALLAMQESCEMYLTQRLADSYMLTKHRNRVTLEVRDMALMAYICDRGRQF
UniProt Q24572: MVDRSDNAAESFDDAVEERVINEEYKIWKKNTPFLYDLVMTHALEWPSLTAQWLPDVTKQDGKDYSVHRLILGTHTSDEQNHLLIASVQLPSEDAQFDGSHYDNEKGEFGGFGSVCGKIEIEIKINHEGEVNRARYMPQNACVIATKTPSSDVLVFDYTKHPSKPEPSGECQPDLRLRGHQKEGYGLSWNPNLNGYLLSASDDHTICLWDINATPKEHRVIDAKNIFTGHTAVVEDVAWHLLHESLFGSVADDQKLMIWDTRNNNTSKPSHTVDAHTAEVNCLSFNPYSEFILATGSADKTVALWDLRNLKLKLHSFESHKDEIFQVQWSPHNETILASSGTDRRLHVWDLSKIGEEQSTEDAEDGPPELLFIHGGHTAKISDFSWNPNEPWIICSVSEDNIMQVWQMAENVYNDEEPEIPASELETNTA
UniProt Q8IRG6: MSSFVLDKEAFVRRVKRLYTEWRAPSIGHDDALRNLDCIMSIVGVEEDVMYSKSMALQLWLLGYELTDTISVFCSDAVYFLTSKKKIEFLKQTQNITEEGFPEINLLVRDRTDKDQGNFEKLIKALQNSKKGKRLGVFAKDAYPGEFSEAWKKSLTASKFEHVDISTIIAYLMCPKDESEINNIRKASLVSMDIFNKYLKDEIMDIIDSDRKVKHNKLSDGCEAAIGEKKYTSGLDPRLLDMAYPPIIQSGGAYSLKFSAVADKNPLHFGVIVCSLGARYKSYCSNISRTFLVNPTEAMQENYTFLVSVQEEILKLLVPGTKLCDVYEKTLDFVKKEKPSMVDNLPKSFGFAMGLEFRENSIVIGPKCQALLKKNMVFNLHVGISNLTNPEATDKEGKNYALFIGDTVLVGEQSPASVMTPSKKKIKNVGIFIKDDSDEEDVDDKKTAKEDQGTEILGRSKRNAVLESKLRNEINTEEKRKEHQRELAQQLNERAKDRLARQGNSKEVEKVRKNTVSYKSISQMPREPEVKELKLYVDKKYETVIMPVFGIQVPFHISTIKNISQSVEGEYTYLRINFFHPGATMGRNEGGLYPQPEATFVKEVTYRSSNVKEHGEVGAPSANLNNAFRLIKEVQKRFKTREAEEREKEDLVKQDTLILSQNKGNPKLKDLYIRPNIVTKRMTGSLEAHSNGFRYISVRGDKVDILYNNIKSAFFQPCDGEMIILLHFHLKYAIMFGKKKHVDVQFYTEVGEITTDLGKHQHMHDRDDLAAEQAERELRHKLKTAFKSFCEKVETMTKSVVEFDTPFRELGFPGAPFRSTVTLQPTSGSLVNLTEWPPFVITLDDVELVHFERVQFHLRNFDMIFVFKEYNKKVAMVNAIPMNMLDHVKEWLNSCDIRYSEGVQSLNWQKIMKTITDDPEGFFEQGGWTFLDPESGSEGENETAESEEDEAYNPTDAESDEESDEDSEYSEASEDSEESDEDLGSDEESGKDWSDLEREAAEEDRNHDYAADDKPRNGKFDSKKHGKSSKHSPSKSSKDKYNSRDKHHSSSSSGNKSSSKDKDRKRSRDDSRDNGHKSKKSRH

Columns and labels:
[1] = target: CENP-A/Cid (endogenous) (Drosophila melanogaster (endogenous in S2)) (UniProt Q9V6Q2); experiment: co-IP; SEC fraction B13 (FACT-CAL1 peak) of S2 nuclear extract; IP with antibodies against CENP-A or CAL1, western blot
[2] = target: CENP-A/Cid (endogenous) (Drosophila melanogaster (endogenous in S2)) (UniProt Q9V6Q2); experiment: SEC; Superose 6 (100 ml) of nuclear extract from S2 cells stably expressing SF-CG2051; 30 mM Tris/HCl pH 8, 200 mM NaCl, 2 mM EDTA, 10% glycerol; fractions analysed by western blot
[3] = target: Flag-tagged Caf1 (Drosophila melanogaster) (UniProt Q24572); experiment: co-IP; extracts of Sf9 cells co-infected with baculoviruses; IP with α-Flag resin, immunoblotting with α-Flag and α-V5 (α-Caf1 for the endogenous Sf9 protein); control IPs from cells without the Flag-tagged protein
[4] = target: V5-tagged CENP-A, full length (Drosophila melanogaster) (UniProt Q9V6Q2); experiment: co-IP; extracts of Sf9 cells co-infected with baculoviruses; IP with α-V5 antibodies, immunoblotting

Row | Molecule | binding [1] | binding [2] | binding [4] | also measured
1 | Caf1 (Rbap46/48), endogenous (from UniProt Q24572 1-430) | binds | – | – | –
2 | V5-tagged CENP-A, full length (from UniProt Q9V6Q2 1-225) | – | – | – | binding [3]: binds
3 | untagged FACT subunit Dre4 (Sf9) (from UniProt Q8IRG6 1-1083) | – | – | binds | –
4 | FACT subunit Ssrp, endogenous (protein, UniProt Q05344 1-723) MTDSLEYNDINAEVRGVLCSGRLKMTEQNIIFKNTKTGKVEQISAEDIDLINSQKFVGTWGLRVFTKGGVLHRFTGFRDSEHEKLGKFIKAAYSQEMVEKEMCVKGWNWGTARFMGSVLSFDKESKTIFEVPLSHVSQCVTGKNEVTLEFHQNDDAPVGLLEMRFHIPAVESAEEDPVDKFHQNVMSKASVISASGESIAIFREIQILTPRGRYDIKIFSTFFQLHGKTFDYKIPMDSVLRLFMLPHKDSRQMFFVLSLDPPIKQGQTRYHYLVLLFAPDEETTIELPFSEAELRDKYEGKLEKEISGPVYEVMGKVMKVLIGRKITGPGNFIGHSGTAAVGCSFKAAAGYLYPLERGFIYIHKPPLHIRFEEISSVNFARSGGSTRSFDFEVTLKNGTVHIFSSIEKEEYAKLFDYITQKKLHVSNMGKDKSGYKDVDFGDSDNENEPDAYLARLKAEAREKEEDDDDGDSDEESTDEDFKPNENESDVAEEYDSNVESDSDDDSDASGGGGDSDGAKKKKEKKSEKKEKKEKKHKEKERTKKPSKKKKDSGKPKRATTAFMLWLNDTRESIKRENPGIKVTEIAKKGGEMWKELKDKSKWEDAAAKDKQRYHDEMRNYKPEAGGDSDNEKGGKSSKKRKTEPSPSKKANTSGSGFKSKEYISDDDSTSSDDEKDNEPAKKKSKPPSDGDAKKKKAKSESEPEESEEDSNASDEDEEDEASD | binds | binds | – | –

Continued, in another order:

Row | binding [1] | binding [2] | binding [4] | Molecule | also measured
5 | binds | binds | – | FACT subunit Dre4, endogenous (from UniProt Q8IRG6 1-1083) | –
6 | – | – | binds | untagged FACT subunit Ssrp (Sf9) (protein, UniProt Q05344 1-723) MTDSLEYNDINAEVRGVLCSGRLKMTEQNIIFKNTKTGKVEQISAEDIDLINSQKFVGTWGLRVFTKGGVLHRFTGFRDSEHEKLGKFIKAAYSQEMVEKEMCVKGWNWGTARFMGSVLSFDKESKTIFEVPLSHVSQCVTGKNEVTLEFHQNDDAPVGLLEMRFHIPAVESAEEDPVDKFHQNVMSKASVISASGESIAIFREIQILTPRGRYDIKIFSTFFQLHGKTFDYKIPMDSVLRLFMLPHKDSRQMFFVLSLDPPIKQGQTRYHYLVLLFAPDEETTIELPFSEAELRDKYEGKLEKEISGPVYEVMGKVMKVLIGRKITGPGNFIGHSGTAAVGCSFKAAAGYLYPLERGFIYIHKPPLHIRFEEISSVNFARSGGSTRSFDFEVTLKNGTVHIFSSIEKEEYAKLFDYITQKKLHVSNMGKDKSGYKDVDFGDSDNENEPDAYLARLKAEAREKEEDDDDGDSDEESTDEDFKPNENESDVAEEYDSNVESDSDDDSDASGGGGDSDGAKKKKEKKSEKKEKKEKKHKEKERTKKPSKKKKDSGKPKRATTAFMLWLNDTRESIKRENPGIKVTEIAKKGGEMWKELKDKSKWEDAAAKDKQRYHDEMRNYKPEAGGDSDNEKGGKSSKKRKTEPSPSKKANTSGSGFKSKEYISDDDSTSSDDEKDNEPAKKKSKPPSDGDAKKKKAKSESEPEESEEDSNASDEDEEDEASD | –
